Test results from patent publication US20230124492A1, “COMPOSITIONS AND METHODS FOR SUBSTITUTED 7-(PIPERAZIN-1-YL)PYRAZOLO[1,5-A]PYRIMIDINE ANALOGS AS INHIBITORS OF KRAS” (The Board of Regents of the University of Texas System, priority 2019, published 2023).
At least one read-out could not be matched to a standard name with certainty. For at least one compound, name, drawing or mass did not settle the structure.

Experiments:
WT KRAS [1] = target: T1, WT KRAS (Homo sapiens, UniProt P01116); test: SOS-mediated nucleotide exchange assay, WT KRAS; assay type: biochemical; settings: for SOS-mediated nucleotide exchange WT, single-dose test (effect / No effect): 25 microMolar ligand
Description: (§1) In other experiments, the compounds disclosed herein can be tested for their abilities to affect rates of intrinsic and SOS-catalyzed nucleotide exchange and release. These assays use fluorescently-labeled BODIPY-GDP (BGDP) and BODIPY-GTP (BGTP), which have increased fluorescence intensity when bound to KRAS. Rate of nucleotide exchange is determined by rate of increase in fluorescence after BGTP is added to GDP-KRAS in the absence or presence of SOS Rate of nucleotide release is determined from rate of decrease in, fluorescence when excess GTP is added to KRAS loaded with BGDP in the presence or absence of SOS, where SOS is “Sons of Sevenless” referring to a set of genes encoding guanine nucleotide exchange factors.
Solutions of ligand (0 to 50 μM) are mixed with equal volumes of KRAS (fixed concentration) and fluorescence spectra are obtained. The difference spectra (between KRAS-ligand mixture and ligand alone) are plotted and the area under the curve is obtained. Kd is estimated from the plot of area versus the ligand concentration. SOS-mediated nucleotide rate was monitored using the fluorescence intensity increase of BODIPY-GTP (B GTP) as it displaces GDP from KRAS. The reaction mixture (100 μL, 96 well plate) contained 0.5 μM K-Ras-GDP, 0.5 μm B-GTP, 0.5 μM SOS and varying concentrations of ligands (0 to 25 μM). B-GTP and SOS mixture was added just before measurements(excitation: 485 nm, emission: 510 nm; TECAN Infinite 200 plate reader). The reaction was monitored for 1 hour. The experiments were conducted with minimal light, Fluorescence intensities were normalized with respect to the value obtained at 120 s and the traces were fit with exponential function (Igor Pro, Wavemetrics).

WT KRAS [2] = target: T1, WT KRAS; test: Intrinsic nucleotide exchange assay, WT KRAS; assay type: biochemical; settings: for Intrinsic nucleotide exchange WT, single-dose test (effect / No effect): 25 microMolar ligand
Description: as §1

SMILES	SOS-mediated nucleotide exchange WT, single-dose test (effect / No effect) (WT KRAS [1])	Intrinsic nucleotide exchange WT, single-dose test (effect / No effect) (WT KRAS [2])	SOS-mediated nucleotide exchange WT, result in words where no EC50 is given (WT KRAS [1]; dose-response, no EC50 given)	Intrinsic nucleotide exchange WT, result in words where no EC50 is given (WT KRAS [2]; dose-response, EC50 not determined)
COCCN1CCN(c2cc(-c3ccccc3)nc3c(-c4ccccc4)c(C)nn23)CC1 [C17″]	effect in single- dose @ 25 uM	effect in single- dose @ 25 uM		
Cc1nn2c(NCCN(C)C)cc(-c3ccccc3)nc2c1-c1ccccc1 [Compound C15]	effect in single- dose @ 25 uM	effect in single- dose @ 25 uM		
OCCN1CCN(c2cc(-c3ccccc3)nc3c(-c4ccccc4)c(-c4ccccc4)nn23)CC1 [C14″]			there is effect but data is noisy	
Cc1cc(NCCN(C)C)n2nc(C)c(-c3ccccc3)c2n1 [Compound C16]	effect in single- dose @ 25 uM			
Cc1nn2c(N3CCN(CCO)CC3)cc(-c3ccc(O)cc3)nc2c1-c1ccccc1 [C30″]				ND; there is effect but data is noisy
